A: 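Whole-cell assay for inhibitors of Mycobacterium tuberculosis growth, labelled Cornell in the record; the read-out is not stated. The concentration is filed as 10 mM, unlikely as a test dose, so the dose is not known. The record gives no direction; compounds strong in two other growth screens of this library score well above the rest, so higher reads as stronger inhibition. Size under these conditions: about 53,000 compounds, about 900 of them at 50% or above in at least one test.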
B: 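Assay on Mycobacterium tuberculosis, filed only as a heat shock assay from Cornell; the read-out is not stated. The concentration is filed as 10 mM, unlikely as a test dose, so the dose is not known. Higher reads as stronger inhibition (inferred: compounds with an IC50 in retests scored well above the rest). Of about 69,000 compounds tested this way, about 930 (1.4%) reached 50% or more in at least one test.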

Values are the deposited “Percent Effect”, in %. The controls that fix the scale are not given in the record; negative values are as filed. The compounds are a random part of those screened. A dash means the value is not listed here; it may have been measured.

| compound | A | B |
|---|---|---|
| `CC(NCc1nnc2n1CCCC2)c1nc(-c2cccs2)no1` (centres undefined) | - | 2.517 |
| `[H][C@]12CCCCN1CCC[C@H]2CNC(=O)Cn1ccc2ccc(F)cc21` | -23.39 | 8.064 |
| `CCc1cccc(C)c1NC(=O)c1ccccc1N(C)S(C)(=O)=O` | -30.96 | -10.01 |
| `CO[C@H]1C[C@@H](O)C12CCN(CCCOc1ccc(C(N)=O)cc1)CC2` | 6.156 | 8.75 |
| `O=C(c1ccccn1)N1CCc2ncnc(-c3ccncc3)c2CC1` | -21.69 | 32.61 |
| `Cc1ccccc1C1CCCN1C(=O)CN1CC2(CCNCC2)OC1=O` (centres undefined) | - | 13.24 |
| `CC(CNC(=O)c1cccc(-n2cccn2)c1)Cn1ccnc1` (centres undefined) | 16.48 | -27.87 |
| `CCOc1ccc(NCC(=O)NCC(=O)N2CCCC2)c(C(F)(F)F)c1` | 16.07 | 17.11 |
| `O=C(NCc1ccc(C(=O)N2CCCC2)cc1)c1cn2c(n1)CNCC2` | - | -3.141 |
| `CCN(CC)C(=O)c1ccn(COc2ccccc2)n1` | - | 3.504 |
| `CCn1nc(C)c2nc(C(C)C)nc(N(C)Cc3ccco3)c21` | 33.68 | -9.972 |
| `c1ccc(N2CCN(Cc3cnc(C4CCCCO4)nc3)CC2)nc1` (centres undefined) | 0.8904 | -10.49 |
| `Cc1ccc(C2CCCN2Cc2nc3c(cnn3C)c(=O)[nH]2)cc1C` (centres undefined) | 16.39 | 11.4 |
| `NC(=O)C1CCN(C(=O)c2cc(S(=O)(=O)N3CCCCC3)cs2)CC1` | -17.82 | 29 |
| `[H][C@@]12CCN(Cc3ccsc3)C[C@]1(C(=O)N1CCCO1)CCO2` | -12.32 | -17.59 |
| `Cc1nccn1-c1ccc(CNS(=O)(=O)N2CCCC(C)C2)cn1` (centres undefined) | 9.282 | -29.14 |
| `CCOC(=O)c1sc(NC(=O)CN2C(=O)CCC2=O)c(C#N)c1C` | -4.59 | -1.815 |
| `Cc1ccc(N2CCCC(N(C)Cc3c(C)noc3C)C2)nn1` (centres undefined) | 5.766 | -28.15 |
| `CC(C)Nc1nc2c(s1)C(=O)CN(C)C2` | -12.91 | -11.99 |
| `CCc1ccc(CN2CCCC(c3nn(C)c(=O)n3CC)C2)nc1` (centres undefined) | - | 19.02 |
| `CC(=O)N1CCN(c2cc(N3CCOCC3)cnn2)CC1` | 17.23 | -7.932 |
| `COc1ccccc1CNC(=O)C(C)N1CC(n2cc(C)cn2)C1` (centres undefined) | 3.632 | 1.901 |
| `CCOc1ncccc1CNS(=O)(=O)c1ccc2c(c1)CCC2` | 13.09 | -22.05 |
| `[H][C@]12CC[C@@]3(N=C(C)N(C)C3=O)[C@@]1([H])CN(C(=O)Nc1ccc(CC)cc1)C2` | -19.94 | -25.55 |
| `CC(CCc1ccccc1F)C(=O)NS(=O)(=O)CC1CC1` (centres undefined) | 3.558 | -22.16 |
| `COc1ccccc1C1Cn2c(C)cnc2CN1Cc1c[nH]nc1C` (centres undefined) | 3.864 | -3.296 |
| `COc1cccc2c1N(CC(=O)Nc1ccc(Cl)cn1)CCC2` | 17.87 | 17.04 |
| `Cc1nc(C)c(C(=O)NCc2nc3cccc(C)c3n2C)o1` | 18.92 | -31.18 |
| `CC(C)Oc1cccc(CN2CCC(c3n[nH]c4ncccc34)CC2)c1` | -10.52 | -24.22 |
| `NC(=O)c1ccc(CN2C(=O)C3(CCNCC3)Nc3ccccc32)cc1` | - | 0.2477 |
| `COc1ccc(OC2CCN(C(=O)c3ccc(C(C)=O)s3)CC2)cc1` | 7.781 | 3.118 |
| `[H][C@]12CCCCN1CCC[C@@]2(O)CN1CCN(Cc2ccncc2)CC1` | 10.9 | 13 |
| `NC(=O)CN1CCCN(C(=O)Cc2ccc(F)cc2)CC1` | -2.443 | -8.342 |
| `COc1ccccc1CN(C)C(=O)CN1CC(n2nc(C)cc2C)C1` | 65.44 | 29.26 |
| `COc1ccc(OCC(=O)NC(C)c2ccccc2)c(C(=O)O)c1` (centres undefined) | 6.261 | 1.175 |
| `CN(Cc1ccn[nH]1)Cc1c[nH]nc1-c1ccc(F)cc1` | 18.78 | 17.1 |
| `O=C(Nc1ccccn1)NC1CCN(c2ccccc2OC(F)F)C1` (centres undefined) | - | -114.7 |
| `c1ccc(-c2nc3c(c(NCCn4cccc4)n2)CCNCC3)nc1` | -5.021 | -4.2 |
| `COCCn1cc2c(n1)C(CNC(=O)c1cc(C)[nH]c1C)OCC2` (centres undefined) | -2.024 | 38.13 |
| `CN1CCN(c2ccc(F)cc2NC(=O)NCc2ccon2)CC1` | - | 1.751 |
| `CC(CNc1nccc(C(C)C)n1)Oc1cccnc1` (centres undefined) | 10.2 | -12.7 |
| `CN(C)C(=O)CC1CC2(CCN(CC3CC3)CC2)Oc2ccccc21.O=C(O)C(F)(F)F` (centres undefined) | 7.145 | 11.01 |
| `Cc1cnn(CC(C)NCc2ccc(OCc3noc(C)n3)cc2)c1` (centres undefined) | -0.5039 | -4.942 |
| `Cn1c2ccccc2c2ncn(CCCN3CCOCC3)c(=O)c21` | -22.77 | -11.26 |
| `CCN1C(=O)CC(c2ccccc2)C12CCN(c1ncc(C)cn1)CC2` (centres undefined) | 36.02 | -7.67 |
| `COc1ccc2nnc(C(=O)NCC3CCCC3)nc2c1` | 39.03 | 44.72 |
| `O=C(NCCc1ccccc1)N1CCCCC1C1OCCO1` (centres undefined) | 15.8 | 11.58 |
| `O=C(NCc1ccoc1)NC1CCCN(c2ncccn2)C1` (centres undefined) | 10.54 | 13.97 |
| `CN1C(=O)CCCC12CCCN(C(=O)c1cc(F)cc(F)c1)C2` (centres undefined) | -10.96 | -1.202 |
| `CC(C(=O)N1CCC(c2[nH]ncc2-c2ccccc2)CC1)n1cncn1` (centres undefined) | 1.78 | 21.27 |
| `Cc1nnc(NCCC(=O)NCc2ccccc2)c(C#N)c1C` | - | 6.204 |
| `O=C(O)C(F)(F)F.O=C1CC(c2ccncc2)C2(CCN(C(=O)c3cccc(F)c3)CC2)N1` (centres undefined) | 11.74 | -0.8028 |
| `O=C(NCC(CO)Cc1cccc(OC(F)(F)F)c1)c1cnccn1` (centres undefined) | -5.272 | 14.03 |
| `O=C(O)C(F)(F)F.[H][C@@]12CCN(C3CCC3)C[C@]1(COc1nccc(C)n1)CCO2` | -1.161 | -19.29 |
| `CC(C)N(C)Cc1nnc2n1CCCN(c1ncccn1)C2.O=C(O)C(F)(F)F` | 22.27 | 11.35 |
| `CC(Cc1cccs1)NC(=O)CCn1cccn1` (centres undefined) | -5.068 | 4.308 |
| `O=C(CCc1nc2cccnc2[nH]1)Nc1ccc2c(c1)OCC(=O)N2` | 47.98 | 8.551 |
| `O=C(O)C(F)(F)F.O=C(c1cccnc1)N1CCCC2(CCN(c3ccsc3)C2=O)C1` (centres undefined) | -17.95 | -19.4 |
| `CC(C)(C)c1csc(CNC(=O)C2NCCc3[nH]cnc32)n1` (centres undefined) | -0.6854 | -4.054 |
| `Cc1ccc(CNC(=O)CCN2CCOC(C(F)(F)F)C2)cc1` (centres undefined) | 4.607 | -2.429 |
| `Cc1ccccc1C(CC(=O)NCc1nnc(N)s1)c1ccccc1` (centres undefined) | 5.727 | 17.78 |
| `O=C(c1ccco1)N1CCC2(CC1)C(=O)NCCN2CC1CC1` | -15.22 | -5.97 |
| `Cc1c(C[S+](C)[O-])cccc1NC(=O)c1cc(Cl)ccn1` (centres undefined) | 20.07 | 13.42 |
| `c1ccc(-c2nccc(CNC3CCc4ncnn4C3)n2)cc1` (centres undefined) | -32.9 | 4.268 |
| `Cc1cc2occ(CC(=O)N3CCC4(CCCN(C)C4=O)C3)c2cc1Cl` (centres undefined) | 0.9995 | -8.533 |
| `CC1CCCCN1C(=O)c1ccc2c(c1)OCCCO2` (centres undefined) | 24.59 | -12.3 |
| `CN1C(=O)CC(C(=O)O)C12CCN(c1ccc3cccc(Cl)c3n1)CC2` (centres undefined) | -44.77 | 15.61 |
| `O=C(NCCCn1cnnc1)C1CCCN(C2CCCC2)C1` (centres undefined) | -1.8 | -4.901 |
| `Cc1cc(N)nc(SC2CCN(c3ccccc3F)C2=O)n1` (centres undefined) | - | -41.86 |
| `COc1cccn(CC(=O)N(C)CCC2CCOCC2)c1=O` | -17.02 | -24.48 |
| `CCC[C@H]1CN(S(=O)(=O)c2ccc(-c3c(C)noc3C)s2)C[C@@H]1N` | 5.179 | -13.04 |

Repeated from the top, 8 entries:

- CC(NCc1nnc2n1CCCC2)c1nc(-c2cccs2)no1 (centres undefined) : B: 2.517%
- [H][C@]12CCCCN1CCC[C@H]2CNC(=O)Cn1ccc2ccc(F)cc21 : A: -23.39%; B: 8.064%
- CCc1cccc(C)c1NC(=O)c1ccccc1N(C)S(C)(=O)=O : A: -30.96%; B: -10.01%
- CO[C@H]1C[C@@H](O)C12CCN(CCCOc1ccc(C(N)=O)cc1)CC2 : A: 6.156%; B: 8.75%
- O=C(c1ccccn1)N1CCc2ncnc(-c3ccncc3)c2CC1 : A: -21.69%; B: 32.61%
- Cc1ccccc1C1CCCN1C(=O)CN1CC2(CCNCC2)OC1=O (centres undefined) : B: 13.24%
- CC(CNC(=O)c1cccc(-n2cccn2)c1)Cn1ccnc1 (centres undefined) : A: 16.48%; B: -27.87%
- CCOc1ccc(NCC(=O)NCC(=O)N2CCCC2)c(C(F)(F)F)c1 : A: 16.07%; B: 17.11%

From ChEMBL document CHEMBL3988442, “University of Dundee, Small-Polar-MMV Screening Library” (2021).